The record followed here is paper doi:10.1101/2024.03.05.583639.

By UniProt entry, the sequences of proteins in these tests, tags left out. Residues count along the entry.
UniProt P27512, 20-289: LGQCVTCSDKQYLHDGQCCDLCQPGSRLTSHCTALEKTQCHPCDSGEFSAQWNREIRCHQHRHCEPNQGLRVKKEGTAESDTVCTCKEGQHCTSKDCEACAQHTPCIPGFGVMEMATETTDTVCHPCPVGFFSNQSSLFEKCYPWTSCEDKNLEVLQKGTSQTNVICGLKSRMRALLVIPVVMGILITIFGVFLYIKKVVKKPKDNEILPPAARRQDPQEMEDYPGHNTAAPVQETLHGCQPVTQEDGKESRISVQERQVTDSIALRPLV

No constants are given. Whether binding was seen depends on the method and setting. In cells and extracts the contact can be indirect. Some results given as binding are weak or reduced against the parent protein; the word gives no strength.

In the test the target is T1, CKLF-like MARVEL transmembrane domain-containing protein 6 (CMTM6), endogenous in mouse splenocytes (mouse (endogenous in splenocytes)) (UniProt Q9CZ69).
T1 sequence: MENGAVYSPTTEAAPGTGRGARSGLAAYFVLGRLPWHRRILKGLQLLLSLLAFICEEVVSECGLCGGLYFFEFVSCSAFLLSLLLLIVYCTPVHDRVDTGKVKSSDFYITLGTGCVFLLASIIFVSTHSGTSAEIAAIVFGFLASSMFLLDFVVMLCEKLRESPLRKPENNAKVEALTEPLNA
Put plainly: co-IP.

Turning to “CD40, endogenous in mouse splenocytes (from UniProt P27512 20-289) (receptor)”, the binding result is given as “binds”.
